PubChem BioAssay AID602196 – INSERM, 2012
Aim: 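Modifiers of cisplatin sensitivity in A549 cells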. Cells: human A549 lung cancer cells. Reagents: siRNA pair against human genes. Time to read-out: 48 h transfection before cisplatin; time from cisplatin to read-out not stated. Conditions: cisplatin at a dose killing half of control-siRNA cells; exact dose and duration not given. Detection: 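Shift in cisplatin death relative to control siRNA, from -50 (all cells die) to +50 (no cells die); siRNAs harmful on their own scored 0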. Direction: two-siRNA summed score (-2 to +2): higher = both siRNAs protect from cisplatin killing; -2 means both sensitise; mean protection from cisplatin (shift in death) and protection from cisplatin (shift in death), siRNA C and protection from cisplatin (shift in death), siRNA D: higher = protection from cisplatin killing. Hit rule: 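siRNAs harmful alone (LDH or WST-1) get 0; others get +1 for less and -1 for more cisplatin killing; genes are active when the two siRNAs give the same sign, summing to ±2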. Meaning of the calls: active = both siRNAs shift cisplatin killing the same way; inactive = no consistent shift, or siRNA harmful alone.
The deposit covers about 23,000 reagents; below is an unselected part. In the full data, 455 (2%) got an active call. 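Active includes both protection and sensitisation; some change values fall well beyond the stated -50 to +50 range.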 Reagents against one gene are numbered here. No sequences are given here. Not given: the amount of reagent.

| target gene | reagent | two-siRNA summed score (-2 to +2) | mean protection from cisplatin (shift in death) (%) | protection from cisplatin (shift in death), siRNA C (%) | protection from cisplatin (shift in death), siRNA D (%) | activity call |
| --- | --- | --- | --- | --- | --- | --- |
| LOC442373 | 1 | 0 | 11.8 | 14.5 | 9.1 | inactive |
| RNASE8 | 1 | 0 | 11.9 | 15.4 | 8.4 | inactive |
| LOC440845 | 1 | 1 | 16.9 | 11.3 | 22.5 | inactive |
| LOC400500 | 1 | 0 | 5.8 | 7.1 | 4.5 | inactive |
| NOL6 | 1 | 1 | 7.2 | -4.1 | 18.5 | inactive |
| SLC9C2 | 1 | 0 | 1.7 | 1.3 | 2.1 | inactive |
| BRD1 | 1 | 0 | 6.4 | 12.7 | 0 | inactive |
| IRS1 | 1 | -1 | -1 | -22.1 | 20 | inactive |
| SELENOS | 1 | 0 | 1.6 | -0.3 | 3.5 | inactive |
| SNW1 | 1 | 0 | -14.3 | -37.2 | 8.6 | inactive |
| SNW1 | 2 | 1 | 9 | -2.7 | 20.8 | inactive |
| RGS22 | 1 | 0 | -1.4 | -11.2 | 8.4 | inactive |
| CPEB2-DT | 1 | 0 | 4.4 | 2.2 | 6.5 | inactive |
| PDHA1 | 1 | -1 | -26.5 | -35.9 | -17.2 | inactive |
| LCTL | 1 | 0 | -1.8 | 0 | -3.6 | inactive |
| LOC283804 | 1 | 0 | 7.2 | 17.3 | -2.8 | inactive |
| LOC286495 | 1 | 0 | 9.5 | 1.3 | 17.6 | inactive |
| IFNW1 | 1 | 0 | -0.9 | -10.6 | 8.8 | inactive |
| ANKUB1 | 1 | 0 | 12 | 15.8 | 8.1 | inactive |
| LOC389183 | 1 | 0 | 10 | 7.9 | 12 | inactive |
| LOC389230 | 1 | 0 | 16.8 | 11.3 | 22.2 | inactive |
| PTPN3 | 1 | 1 | 6.2 | 8.2 | 4.2 | inactive |
| C3orf22 | 1 | 0 | -1.2 | -1.6 | -0.9 | inactive |

Taken from above:
Under “activity call”, BRD1 is entered as inactive
Under “mean protection from cisplatin (shift in death) (%)”, LOC440845 shows 16.9
